Experimental data as given in patent US20040009530A1 (ZYOMYX, published 2004).
These are yes or no findings as the source states them, for the method shown. Some entries that bind do so weakly or less than the wild type.

Chains of the proteins cited; added tags and fusions are not shown. Lines headed by an entry give the natural chain unless they say otherwise; changes in a name come on top.
UniProt P01215: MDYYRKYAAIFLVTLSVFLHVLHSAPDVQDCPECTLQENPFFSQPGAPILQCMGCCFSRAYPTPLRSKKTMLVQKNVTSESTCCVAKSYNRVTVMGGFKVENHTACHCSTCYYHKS

Columns and labels:
[1] = molecular target: T1, human chorionic gonadotropin (human, UniProt P01215 25-116; P0DN86 21-165, biotinylated using an NHS-SS-biotin reagent (sites not given)); assay: ELISA screen at phage and protein level, biotinylated hCG immobilized
T1 construct: The target was biotinylated and immobilized on Neutravidin- or Streptavidin-coated strip plates; also called hCG

[2] = molecular target: T1, human chorionic gonadotropin; assay: phage display selection and ELISA screen, hCG immobilized

B1: engineered chaperonin protein SP4-5 (designed binder)
chain: DDDRIPASGIVIARPGESAFMPDVVKNAKIALIDSALEIKKTEIEAKVQISDPSKIQDFLNQETNTFKQMVEKIKKSGANVVLCNGDQADVAYDYLAKEGIYAVHFVDESDMEKLAKATGAKIVTDLDDLTPSVLGEAETVEERKYTEGVPTYVMGCKGSVSHHHHHHSEQKLISEEDLLRLE
notes: also called engineered protein clone SP4-5; not shown: FLAG-tag from the expression vector upstream of the insertion site
Question: B1 was tested. Which binding [1] did it give?
Answer: binds

B2: engineered rubredoxin protein G3 (designed binder)
chain: MAKWVCKICGYIYDEDAGFVEYYGHPNISPGTKFEELSRYVDGWTCPICSYGMPIFEKLED
notes: Engineered Pyrococcus furiosus rubredoxin
Question: For B2, which binding [2] is on record?
Answer: binds

B3: engineered rubredoxin protein D7 (designed binder)
chain: MAKWVCKICGYIYDEDAGEDPGHRSRYISPGTKFEELTTGWTCPICRCTNSTTSTNCFEKLED
notes: Engineered Pyrococcus furiosus rubredoxin; No tags are stated for the assayed construct
Question: How did the binding [2] turn out when B3 was run?
Answer: binds

B4: engineered rubredoxin protein F3 (designed binder)
chain: MAKWVCKICGYIYDEDAGFVEYYDDGVISPGTKFEELHTAWTCPICSCTYNPFEKLED
notes: as for B3
Question: Which binding [2] does the source give for B4 here?
Answer: binds
